PubChem BioAssay AID720505 | Drosophila RNAi Screening Center, 2013

- Aim: 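Fly regulators or components of the CRAC channel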 (primary screen)
- Cell system: Drosophila S2R+ cells
- Reagent: long dsRNA against Drosophila genes
- Treatment: thapsigargin (2 µM) in calcium-free buffer to empty internal stores, then 2 mM calcium added back
- Detection: 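Fluo-4 signal in 384-well plates read on a FLIPR after thapsigargin (2 µM, calcium-free) store depletion and 2 mM calcium add-back; unnormalised mean endpoint per well; screen run twice, selected wells retested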
- Scale: calcium signal and retest calcium signal: higher = more calcium entry after store depletion
- Rule for the call: 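Knock-downs counted as hits when calcium entry dropped relative to STIM1 positive and Rho1 negative controls present on each plate; roughly 1500 genes called, with reductions of differing size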
- Calls: active = called as lowering calcium entry; inactive = not called
The screen tested about 20,000 reagents; this is an unselected part of those that have a named target and a result. Of all reagents, about 2,100 (10%) are marked active. 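Raw plate signals without normalisation; calls rest on control-based scores that were not deposited; replicate 2 separates called from uncalled poorly.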 Names joined by + are all predicted targets of the reagent. Not given: the amount of reagent, the time to read-out.

Gene	DRSC id	calcium signal, replicate 1	calcium signal, replicate 2	retest calcium signal, replicate 1	retest calcium signal, replicate 2	Call
Srg3	DRSC10178	91.4	94			inactive
DnaJ-H	DRSC03273	86.5	151			inactive
ND-42	DRSC16754	112	191			inactive
Osi7	DRSC12176	66.2	139			active
AstA-R2	DRSC14171	173	151			inactive
ais	DRSC10523	133	81.8			inactive
Prp18	DRSC16802	121	135			inactive
CG34436	DRSC15164	175	171			inactive
CG5250	DRSC15752	158	107			inactive
CG30389	DRSC04077	141	90.9			inactive
CG30389	DRSC04452	115	84.3			inactive
lncRNA:CR43421	DRSC05819	123	118			inactive
CG30487	DRSC05377	104	141			inactive
CG44000 + CG33995 + CG44001	DRSC00853	73	156			inactive
CG44000 + CG33995 + CG44001	DRSC02898	52.5	158			active
CG34231	DRSC05323	59.8	109			inactive
MED1	DRSC11808	101	69.3			inactive
CG14573	DRSC11734	120	221			inactive
ZnT35C	DRSC01959	96.2	157			inactive
CG11843	DRSC14401	154	163			inactive
crm	DRSC18754	115	95.5	90	101	inactive
Prp8	DRSC07293	104	122			inactive
CG13705	DRSC08314	105	52.4			inactive
CG13705	DRSC22691	134	139			inactive
CG33109	DRSC16533	96.5	85.1			inactive
Myo28B1	DRSC03375	67.5	174			active
CG18682 (retired record)	DRSC15373	169	151			inactive
CG18682 (retired record)	DRSC15374	196	146	8525	125	inactive

The list goes on; the last 6 above are carried over.
Gene	DRSC id	calcium signal, replicate 1	calcium signal, replicate 2	retest calcium signal, replicate 1	retest calcium signal, replicate 2	Call
CG13705	DRSC08314	105	52.4			inactive
CG13705	DRSC22691	134	139			inactive
CG33109	DRSC16533	96.5	85.1			inactive
Myo28B1	DRSC03375	67.5	174			active
CG18682 (retired record)	DRSC15373	169	151			inactive
CG18682 (retired record)	DRSC15374	196	146	8525	125	inactive
CG15211	DRSC19657	105	88.6			inactive
CG6769	DRSC20006	151	130			inactive
Kal1	DRSC15983	152	153			inactive
Tm2	DRSC16887	96.8	134			inactive
CG31462 (retired record)	DRSC14359	132	121			inactive
CG6550	DRSC07001	97.1	115			inactive
Tengl2	DRSC21968	79.5	272			inactive
CG10466	DRSC02060	130	110			inactive
CG18178	DRSC10302	132	88.5			inactive
Vps60	DRSC10610	104	201			inactive
Df31	DRSC03738	154	79.2	111	106	inactive
Df31	DRSC22163	105	161			inactive
CG8584	DRSC07217	127	171			inactive
SdhD	DRSC14215	142	133			inactive
tkv + CR14033 + tRNA:Asp-GTC-2-1 + 1 more	DRSC00861	81.5	143	7290	120	inactive
CG8630	DRSC16441	119	169			inactive
CG15139 (retired record)	DRSC02439	113	147			inactive
Sas-6	DRSC15061	180	212			inactive
CG9676	DRSC20204	92.5	115			inactive
CG31224	DRSC15272	117	174			inactive
CG31224	DRSC16290	238	351			inactive
thetaTry	DRSC07705	132	165			inactive
CG9391	DRSC11858	84.8	163			inactive
CG13577	DRSC04213	98.7	124			inactive
CG11726	DRSC09858	81.8	112			inactive
pn	DRSC18822	130	139			inactive
fy	DRSC03533	205	107			inactive
CG13258	DRSC02244	118	114			inactive
